At least one structure is not confirmed: it was looked up by name or label, or the drawing left a doubt.
Assays:
[1] = system: APBD patient-derived skin fibroblasts; test: Polyglucosan reduction in APBD patient-derived skin fibroblasts; type: cell-based, human
APBD patient = test: Muscle power grade in APBD patient (Kleyweg et al. 1991); type: in vivo, human; settings: patient 1, before treatment vs after 10 months of treatment; all muscles measured
[2] = system: human light chain neurofilament protein; test: Neurofilament light chain in patient plasma (Simoa NF-Light v2); type: in vivo; settings: patients 1 and 2, formulated GHF-201
APBD mice = test: Survival, locomotive and reflex parameters in APBD mice; type: in vivo; settings: continuous treatment for two months prior to disease expected onset
polyglucosans = test: Histopathological effect on polyglucosans in mouse tissues; type: in vivo; settings: mice

COCCN(Cc1sccc1C)C(=O)c1cc(C)[nH]c(=O)c1 [Compound GHF-201]
reduction of polyglucosans [1]: capable of reducing polyglucosans
muscle power grade (APBD patient): significant increase
neurofilament light chain in plasma [2]: significant decline
locomotive and reflex parameters (APBD mice): improved
survival (APBD mice): significantly increased
histopathological effect on polyglucosans, brain and heart (polyglucosans): intermediately lowered
histopathological effect on polyglucosans, muscle (polyglucosans): not affected
